Measured values published in patent publication US12139458B2, “(2,5-dioxopyrrolidin-1-yl)(phenyl)-acetamide derivatives and their use in the treatment of neurological diseases” (UNIWERSYTET JAGIELLONSKI, priority 2019, dated 2024).

Assays:
Assay type in all cases: in vivo
[1] = system: male Swiss albino mice (CD-1); assay: Maximal electroshock seizure test (MES); settings: protective index, rotarod TD50 / MES ED50
Description: (§1) The male Swiss albino mice (CD-1) weighing 18-26 g were used. All procedures were carried out in accordance with applicable Polish and international guidelines on the ethics of animal testing, after obtaining appropriate institutional approval. The substances were administered intraperitoneally (i.p.), in 1% aqueous solution of Tween, as single injections with a volume of 10 ml/kg, 30 minutes before the given test. Screening was performed on groups consisted of 4 mice. The average effective dose (ED50) in given test and toxic dose in the rotarod test (TD50) was estimated based on the results obtained in 3-4 groups of animals consisting of 6 mice. All tests were carried out based on the procedures described in the specialist literature.
In the MES test, the seizures were induced by an electrical stimulus lasting of 0.2 s duration, 500 V voltage and 25 mA intensity. The electrical stimuli was generated using an electric shock generator (Rodent shocker, Type 221, Hugo Sachs Elektronik, Germany) and delivered to the animal using electrodes placed on the auricles. The study was conducted 30 minutes after intraperitoneal administration of the compounds at various doses. During the experiment, the number of animals that experienced a seizure episode in the form of tonic extension of the hind limbs was counted (Kamiński, K.; Rapacz, A.; Łuszczki, J. J.; Latacz, G.; Obniska, J.; Kieć-Kononowicz, K.; Filipek, B. Bioorg. Med. Chem. 2015, 23, 2548-2561; Castel-Branco, M. M.; Alves, G. L.; Figueiredo, I. V.; Falcão, A. C.; Caramona, M. M. Methods Find. Exp. Clin. Pharmacol. 2009, 31, 101-106).
(§2) To perform a statistical evaluation of the results, one-way ANOVA variance analysis and Dunnett's post hoc test (multiple comparison test) were used. The value at the significance level p<0.05 was considered statistically significant.

[2] = system: male Swiss albino mice (CD-1); assay: Psychomotor seizure test 6 Hz (32 mA); settings: protective index, rotarod TD50 / 6 Hz 32 mA ED50
Description: as §1
In the 6 Hz test, seizures were induced by an electric stimulus of 32 mA and/or 44 mA and a frequency of 6 pulses per second. An electrical pulse was generated using an electric shock generator (ECT Unit 57800; Ugo Basile, Gemonio, Italy) and delivered to the animal using ocular electrodes. Before starting the test, the eye surface was gently moistened with a solution of local anesthetic (1% lidocaine solution). The study was conducted 30 minutes after intraperitoneal administration of the compounds at various doses. An electrical pulse was delivered continuously for a period of 3 seconds, followed by observation of the animal for a period of 10 seconds. During this time, immobility or stun associated with rearing, forelimb clonus, twitching of the vibrissae and Straub's tail were observed. These symptoms persist throughout the observation period, indicating the occurrence of psychomotor seizures in mice. Mice resuming normal behavior within 10 s after stimulation were considered as protected (Barton, M. E.; Klein, B. D.; Wolf, H. H.; White, H. S. Epilepsy Res. 2001, 47, 217-227; Wojda, E.; Wlaź, A.; Patsalos, P. N.; Łuszczki, J. J. Epilepsy Res. 2009, 86, 163-174).
as §2

[3] = system: male Swiss albino mice (CD-1); assay: Subcutaneous pentylenetetrazole seizure test (scPTZ); settings: protective index, rotarod TD50 / scPTZ ED50
Description: as §1
In the scPTZ test, seizures were induced by subcutaneous administration of pentylenetetrazole (PTZ) at a dose of 100 mg/kg. This caused clonic seizures with accompanying loss of the righting reflex. Test compounds were administered 30 minutes before the experiment. After PTZ administration, the animals were placed individually in transparent containers and observed for a period of 30 minutes for the occurrence of clonic seizures. During this time, the latency of the first onset of clonic seizures, defined as clonus of the whole body lasting at least 3 seconds with loss of the righting reflex and the number of seizure episodes during the test were noted and compared with control group. The absence of clonic convulsions within the observed time period was interpreted as the compound's ability to protect against PTZ-induced seizures (Ferreri, G.; Chimirri, A.; Russo, E.; Gitto, R.; Gareri, P.; De Sarro, A.; De Sarro, G. Pharmacol. Biochem. Behav. 2004, 77, 85-94; Łączkowski, K.; Sałat, K.; Misiura, K.; Podkowa, A.; Malikowska, N. J. Enzyme Inhib. Med. Chem. 2016, 31, 1576-82).
as §2

[4] = system: male Swiss albino mice (CD-1); assay: Psychomotor seizure test 6 Hz (44 mA); settings: protective index, rotarod TD50 / 6 Hz 44 mA ED50
Description: as §1, with “All” for “The male Swiss albino mice (CD-1) weighing 18-26 g were used. All”, “The average effective dose (ED50) in given test and toxic dose in the rotarod test (TD50) was estimated based on the results obtained in 3-4 groups of animals consisting of 6 mice.” left out
In the 6 Hz test, seizures were induced by an electric stimulus of 32 mA and/or 44 mA and a frequency of 6 pulses per second. […] Before starting the test, the eye surface was gently moistened with a solution of local anesthetic (1% lidocaine solution). The study was conducted 30 minutes after intraperitoneal administration of the compounds at various doses. An electrical pulse was delivered continuously for a period of 3 seconds, followed by observation of the animal for a period of 10 seconds. During this time, immobility or stun associated with rearing, forelimb clonus, twitching of the vibrissae and Straub's tail were observed. These symptoms persist throughout the observation period, indicating the occurrence of psychomotor seizures in mice.
as §2

SMILES	PI (TD50/ED50) (MES) [1]	PI (TD50/ED50) (6 Hz, 32 mA) [2]	PI (TD50/ED50) (scPTZ) [3]	PI (TD50/ED50) (6 Hz, 44 mA) [4]
O=C(C(c1ccccc1)N1C(=O)CCC1=O)N1CCN(c2cccc(OC(F)(F)F)c2)CC1 (racemic) [Compound 10, 1-(2-Oxo-1-phenyl-2-(4-(3-(trifluoromethoxy)phenyl)piperazin-1-yl)ethyl)pyrrolidine-2,5-dione]	1.8	1.9	>1.2	–
O=C(C(c1ccccc1)N1C(=O)CCC1=O)N1CCN(c2cccc(Cl)c2)CC1 (racemic) [Compound 3, 1-(2-(4-(3-Chlorophenyl)piperazin-1-yl)-2-oxo-1-phenylethyl)pyrrolidine-2,5-dione]	3.9	3.6	2.7	–
O=C(C(c1ccccc1)N1C(=O)CCC1=O)N1CCN(c2cccc(C(F)F)c2)CC1 (racemic) [Compound 9, 1-(2-Oxo-1-phenyl-2-(4-(3-(difluoromethyl)phenyl)piperazin-1-yl)ethyl)pyrrolidine-2,5-dione]	2.8	4.4	2.9	1.4
O=C([C@@H](c1ccccc1)N1C(=O)CCC1=O)N1CCN(c2cccc(C(F)(F)F)c2)CC1 [(R)-6, (R)-1-(2-Oxo-1-phenyl-2-(4-(3-(trifluoromethyl)phenyl)piperazin-1-yl)ethyl) pyrrolidine-2,5-dione]	13.1	12.0	8.5	4.1
O=C(C(c1ccccc1)N1C(=O)CCC1=O)N1CCN(c2cccc(-c3ccccc3)c2)CC1 (racemic) [Compound 13, 1-(2-(4-([1,1′-Biphenyl]-3-yl)piperazin-1-yl)-2-oxo-1-phenylethyl)pyrrolidine-2,5-dione]	1.7	2.8	>0.7	–
O=C(C(c1ccccc1)N1C(=O)CCC1=O)N1CCN(c2ccccc2)CC1 (racemic) [Compound 2, 1-(2-Oxo-1-phenyl-2-(4-phenylpiperazin-1-yl)ethyl)pyrrolidine-2,5-dione]	>3.3	>3.6	>3.0	–
O=C([C@@H](c1ccccc1)N1C(=O)CCC1=O)N1CCN(c2cccc(Cl)c2)CC1 [(R)-3, (R)-1-(2-(4-(3-chlorophenyl)piperazin-1-yl)-2-oxo-1-phenylethyl)pyrrolidine-2,5-dione]	3.7	4.5	2.8	–
O=C([C@@H](c1ccccc1)N1C(=O)CCC1=O)N1CCN(c2cccc(OC(F)(F)F)c2)CC1 [(R)-10, (R)-1-(2-Oxo-1-phenyl-2-(4-(3-(trifluoromethoxy)phenyl)piperazin-1-yl)ethyl)pyrrolidine-2,5-dione]	>6.6	11.7	<2.5	–
O=C(C(c1ccccc1)N1C(=O)CCC1=O)N1CCN(c2cccc(SC(F)(F)F)c2)CC1 (stereo not shown) [Compound 12]	4.1	9.5	<1.5	2.6
O=C(C(c1ccccc1)N1C(=O)CCC1=O)N1CCC(c2cccc(C(F)(F)F)c2)CC1 (racemic) [Compound 19, 1-(2-Oxo-1-phenyl-2-(4-(3-(trifluoromethyl)phenyl)piperidin-1-yl)ethyl)pyrrolidine-2,5-dione]	3.1	6.2	>2.5	–
O=C(C(c1ccccc1)N1C(=O)CCC1=O)N1CCN(c2cc(Cl)cc(Cl)c2)CC1 (racemic) [Compound 4, 1-(2-(4-(3,5-Dichlorophenyl)piperazin-1-yl)-2-oxo-1-phenylethyl)pyrrolidine-2,5-dione]	>4.4	>17.0	–	–
O=C(C(c1ccc(F)cc1)N1C(=O)CCC1=O)N1CCN(c2cccc(C(F)(F)F)c2)CC1 (racemic) [Compound 14, 1-(1-(4-Fluorophenyl)-2-oxo-2-(4-(3-(trifluoromethyl)phenyl)piperazin-1-yl)ethyl)pyrrolidine-2,5-dione]	5.3	6.2	–	–
Cc1cccc(N2CCN(C(=O)C(c3ccccc3)N3C(=O)CCC3=O)CC2)c1 (racemic) [Compound 5, 1-(2-Oxo-1-phenyl-2-(4-(m-tolyl)piperazin-1-yl)ethyl)pyrrolidine-2,5-dione]	4.6	4.8	3.0	–
O=C([C@H](c1ccccc1)N1C(=O)CCC1=O)N1CCN(c2cccc(C(F)(F)F)c2)CC1 [(S)-6, (S)-1-(2-Oxo-1-phenyl-2-(4-(3-(trifluoromethyl)phenyl)piperazin-1-yl)ethyl) pyrrolidine-2,5-dione]	>4.4	–	>4.0	–
O=C(C(c1ccccc1)N1C(=O)CCC1=O)N1CCN(c2cccc(C(F)(F)F)c2)CC1 (racemic) [Compound 6, 1-(2-Oxo-1-phenyl-2-(4-(3-(trifluoromethyl)phenyl)piperazin-1-yl)ethyl)pyrrolidine-2,5-dione]	8.2	8.7	3.3	2.7
